According to US7374920B2, “Ginkgo biloba levopimaradiene synthase” (priority 2001, dated 2008):
For at least one compound, name, drawing or mass did not settle the structure.

Target: T1, Levopimaradiene synthase (Ginkgo biloba, UniProt Q947C4)
T1 construct: thioredoxin (from pET32c(+)); made in house; host or cells: E. coli BL21(DE3), soluble fraction of the lysate
T1 sequence (Q947C4 60-873): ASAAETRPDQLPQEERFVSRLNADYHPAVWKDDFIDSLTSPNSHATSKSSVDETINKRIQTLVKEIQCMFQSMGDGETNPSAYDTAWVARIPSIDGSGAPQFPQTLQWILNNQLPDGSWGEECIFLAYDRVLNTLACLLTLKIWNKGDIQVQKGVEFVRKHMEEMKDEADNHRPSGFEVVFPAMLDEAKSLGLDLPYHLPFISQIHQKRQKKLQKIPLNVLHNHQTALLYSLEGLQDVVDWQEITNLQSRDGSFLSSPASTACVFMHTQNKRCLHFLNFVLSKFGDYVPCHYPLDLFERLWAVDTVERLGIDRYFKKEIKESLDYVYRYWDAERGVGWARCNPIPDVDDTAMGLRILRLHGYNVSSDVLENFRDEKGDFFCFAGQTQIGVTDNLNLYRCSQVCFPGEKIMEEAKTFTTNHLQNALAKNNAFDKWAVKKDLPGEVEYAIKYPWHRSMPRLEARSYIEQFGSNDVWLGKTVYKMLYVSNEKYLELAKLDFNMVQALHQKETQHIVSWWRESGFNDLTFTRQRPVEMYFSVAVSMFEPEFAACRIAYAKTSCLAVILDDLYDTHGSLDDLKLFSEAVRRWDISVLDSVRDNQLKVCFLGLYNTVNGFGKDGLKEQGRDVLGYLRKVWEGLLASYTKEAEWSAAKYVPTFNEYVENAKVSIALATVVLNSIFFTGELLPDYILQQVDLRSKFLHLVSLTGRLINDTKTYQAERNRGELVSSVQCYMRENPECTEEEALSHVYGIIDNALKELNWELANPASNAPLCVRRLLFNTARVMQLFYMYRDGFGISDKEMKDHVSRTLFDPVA
Assay: levopimaradiene synthase activity towards geranyl diphosphate and farnesyl diphosphate
Type: biochemical
Settings: E. coli expression, 200 μM substrate, overnight at 32° C., GC or GC/MS
Method: Levopimaradiene synthase was also tested for activity towards 200 μM geranyl diphosphate and farnesyl diphosphate. Cell cultures were induced and lysed as noted above. The soluble fraction of the lysate was incubated overnight at 32° C. with 200 μM substrate in 30 mM HEPES, pH 7.2, 5 mM DTT, 5% glycerol, 2 mM MgCl2 and 500 μM MnCl2, and overlaid with hexane (1 mL).
All in vitro reactions were extracted 3× with hexane and dried over MgSO4. The reaction was further extracted twice with diethyl ether and dried over MgSO4. Thereafter, the crude lysate was suspended in 100 mM Tris, pH 8.0 containing 2.9 units/mg apyrase (a dephosphorylating agent) and 10 units/μL calf intestinal alkaline phosphatase, incubated at 30° C. for 3 hours, and extracted with diethyl ether as noted above (Croteau and Cane, 1985). The crude reaction mixtures were eluted over SiO2, concentrated, and analyzed by GC and GC/MS.
Gas chromatography spectra were obtained on a Hewlett Packard 6890 Series GC System equipped with an Rtx-5 capillary column (Restek, 30 m×0.25 mm i.d., 0.10 μm df). The following separation conditions and temperature program were employed: injector port 250° C., FID 250° C., split ratio 39:1, helium flow 20 cm/s (0.6 mL/min), 150° C. hold 5 min, increase to 250° C. (5° C./min), hold 5 min. […]

## CC(C)=CCC/C(C)=C/CC/C(C)=C/CO[P@@](=O)(O)OP(=O)(O)O (stereo in doubt) [farnesyl diphosphate]
  terpene formation from alternative substrate: did not produce any identifiable terpenes
